According to paper PMC5731862:
No constants are given. Whether binding was seen depends on the method and setting. In cells and extracts the contact can be indirect. Some entries that bind do so weakly or less than the wild type.

Protein sequences, listed by entry. Tags and fused reporters are not part of them.
UniProt P11798: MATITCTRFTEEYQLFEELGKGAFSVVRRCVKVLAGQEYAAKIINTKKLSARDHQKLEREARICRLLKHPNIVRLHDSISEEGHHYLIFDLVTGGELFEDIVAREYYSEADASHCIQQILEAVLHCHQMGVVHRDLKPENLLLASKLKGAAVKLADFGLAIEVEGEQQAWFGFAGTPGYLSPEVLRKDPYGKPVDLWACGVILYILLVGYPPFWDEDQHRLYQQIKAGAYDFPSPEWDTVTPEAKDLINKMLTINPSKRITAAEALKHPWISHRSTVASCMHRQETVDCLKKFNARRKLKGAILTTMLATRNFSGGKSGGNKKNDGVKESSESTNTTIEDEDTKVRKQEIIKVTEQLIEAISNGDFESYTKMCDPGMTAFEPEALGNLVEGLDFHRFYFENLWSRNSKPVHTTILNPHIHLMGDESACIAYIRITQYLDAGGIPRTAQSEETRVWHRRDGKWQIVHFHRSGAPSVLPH
UniProt O54967: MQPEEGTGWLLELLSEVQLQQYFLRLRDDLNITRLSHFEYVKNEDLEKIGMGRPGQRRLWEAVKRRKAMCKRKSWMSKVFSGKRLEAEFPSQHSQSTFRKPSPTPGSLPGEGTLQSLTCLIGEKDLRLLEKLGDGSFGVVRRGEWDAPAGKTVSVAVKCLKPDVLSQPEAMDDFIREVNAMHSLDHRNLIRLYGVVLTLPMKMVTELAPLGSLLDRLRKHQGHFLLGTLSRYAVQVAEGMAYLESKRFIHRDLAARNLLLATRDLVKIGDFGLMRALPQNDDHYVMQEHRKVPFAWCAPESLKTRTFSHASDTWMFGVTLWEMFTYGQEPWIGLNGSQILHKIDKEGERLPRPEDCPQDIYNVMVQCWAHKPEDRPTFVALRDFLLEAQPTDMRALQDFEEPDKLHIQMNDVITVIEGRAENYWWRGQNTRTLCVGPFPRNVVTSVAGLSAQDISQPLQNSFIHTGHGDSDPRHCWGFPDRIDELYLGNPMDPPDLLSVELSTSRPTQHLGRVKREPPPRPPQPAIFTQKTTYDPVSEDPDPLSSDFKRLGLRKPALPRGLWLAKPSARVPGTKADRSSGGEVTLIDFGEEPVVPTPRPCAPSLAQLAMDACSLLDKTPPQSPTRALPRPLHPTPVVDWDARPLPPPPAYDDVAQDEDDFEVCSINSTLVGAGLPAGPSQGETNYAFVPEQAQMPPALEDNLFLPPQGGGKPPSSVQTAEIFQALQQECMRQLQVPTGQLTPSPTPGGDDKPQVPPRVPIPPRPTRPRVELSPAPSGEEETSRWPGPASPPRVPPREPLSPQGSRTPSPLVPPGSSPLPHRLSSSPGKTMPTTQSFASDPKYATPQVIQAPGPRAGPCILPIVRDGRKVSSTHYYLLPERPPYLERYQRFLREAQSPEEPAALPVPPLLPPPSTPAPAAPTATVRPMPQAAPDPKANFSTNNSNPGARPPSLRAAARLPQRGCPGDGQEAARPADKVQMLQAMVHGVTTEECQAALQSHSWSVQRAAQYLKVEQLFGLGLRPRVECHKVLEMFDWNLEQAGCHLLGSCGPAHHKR

Experiments:
[1] = target: CAMKII-α (Calmodulin kinase II) (mouse (endogenous in brain)) (UniProt P11798); assay: co-IP; adult mouse brain homogenate (500 μg protein; 1% Triton X-100, 150 mM NaCl, HEPES pH 7.5), antibody against Ack1 or against CAMKII-α 2 h at 4°C, protein G-sepharose, Western blot; anti-GST antibody as control
[2] = target: Ack1 (activated Cdc42-associated tyrosine kinase) (mouse (endogenous in brain)) (UniProt O54967); assay: as above

| binding [1] | binding [2] | Substance |
| --- | --- | --- |
| binds | – | Ack1 (activated Cdc42-associated tyrosine kinase) (from UniProt O54967 1-1055) (enzyme) |
| – | binds | CAMKII-α (Calmodulin kinase II) (from UniProt P11798 1-478) (enzyme) |
